The source of these data is PMC5239461.

Chains of the proteins cited; added tags and fusions are not shown.
UniProt P40763: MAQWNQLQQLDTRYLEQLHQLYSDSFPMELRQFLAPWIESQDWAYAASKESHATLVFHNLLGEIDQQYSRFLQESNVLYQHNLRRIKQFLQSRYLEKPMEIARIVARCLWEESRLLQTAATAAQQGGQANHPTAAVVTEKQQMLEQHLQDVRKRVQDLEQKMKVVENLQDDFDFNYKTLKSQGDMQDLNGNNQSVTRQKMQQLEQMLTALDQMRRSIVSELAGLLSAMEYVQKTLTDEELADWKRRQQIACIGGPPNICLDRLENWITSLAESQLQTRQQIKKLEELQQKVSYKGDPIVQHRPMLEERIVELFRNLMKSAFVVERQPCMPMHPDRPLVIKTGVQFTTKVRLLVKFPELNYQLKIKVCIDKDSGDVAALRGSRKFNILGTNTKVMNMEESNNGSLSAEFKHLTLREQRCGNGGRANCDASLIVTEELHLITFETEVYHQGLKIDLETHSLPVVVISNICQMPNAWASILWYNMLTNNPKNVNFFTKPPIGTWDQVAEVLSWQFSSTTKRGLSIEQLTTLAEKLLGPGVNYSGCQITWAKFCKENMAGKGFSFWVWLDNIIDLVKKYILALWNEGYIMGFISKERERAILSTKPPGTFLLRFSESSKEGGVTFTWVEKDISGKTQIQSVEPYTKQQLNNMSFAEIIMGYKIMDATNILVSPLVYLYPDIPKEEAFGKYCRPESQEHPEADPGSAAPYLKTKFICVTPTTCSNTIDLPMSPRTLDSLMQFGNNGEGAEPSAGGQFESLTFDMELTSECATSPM
UniProt P42224: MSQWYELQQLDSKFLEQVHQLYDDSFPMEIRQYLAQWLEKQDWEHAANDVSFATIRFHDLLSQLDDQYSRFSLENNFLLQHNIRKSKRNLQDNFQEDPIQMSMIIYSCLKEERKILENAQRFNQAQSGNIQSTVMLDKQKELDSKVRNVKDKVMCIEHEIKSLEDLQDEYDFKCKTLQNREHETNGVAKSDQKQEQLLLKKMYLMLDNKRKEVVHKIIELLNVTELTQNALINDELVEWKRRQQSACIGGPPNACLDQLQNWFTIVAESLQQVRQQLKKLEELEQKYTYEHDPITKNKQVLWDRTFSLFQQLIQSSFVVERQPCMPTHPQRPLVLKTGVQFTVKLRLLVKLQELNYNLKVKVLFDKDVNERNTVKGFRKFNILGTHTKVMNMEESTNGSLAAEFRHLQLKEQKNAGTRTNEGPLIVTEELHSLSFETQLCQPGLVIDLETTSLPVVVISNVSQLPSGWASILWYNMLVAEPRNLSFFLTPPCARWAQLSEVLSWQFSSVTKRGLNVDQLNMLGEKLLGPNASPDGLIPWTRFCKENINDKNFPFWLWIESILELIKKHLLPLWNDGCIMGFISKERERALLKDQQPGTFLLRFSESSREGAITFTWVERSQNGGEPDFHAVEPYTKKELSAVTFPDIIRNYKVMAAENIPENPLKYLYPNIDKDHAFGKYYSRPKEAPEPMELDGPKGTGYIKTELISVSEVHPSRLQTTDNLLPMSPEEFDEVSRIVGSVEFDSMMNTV

This test deals with STAT3 (human (endogenous in CRC cell lines)) (UniProt P40763). Nature of the test: co-IP; endogenous STAT3 precipitated from CRC cell line lysates (1 mg protein) with 10 ug anti-STAT3 (sc-482) on Protein A Sepharose, overnight at 4°C, in 10 mM HEPES pH 7.5, 1 mM EDTA (5 volumes of IP buffer; low salt); cells with or without IL-6 (10 ng/ml) or IFNγ (2.5 ng/ml) for half an hour; Western blot with anti-STAT1 and anti-STAT3. (In general: In western blotting, separated proteins are transferred to a membrane and probed.)

These are yes or no findings as the source states them, for the method shown. Binding seen in cells or lysates may run through a third protein. Some binding calls cover weakened binding; strength is not graded here.

As for STAT1 (from UniProt P42224 1-750), the binding result was “binds weakly”.
